Measurements as given in article PMC5131891, “Structural Insights into Streptococcal Competence Regulation by the Cell-to-Cell Communication System ComRS” (PLoS Pathogens, 2016).

Molecular target: ComR from Streptococcus thermophilus LMD-9 (ComR-StreptagII, wild type) (Streptococcus thermophilus LMD-9)
Test: crystal structure; ComR/XIP/DNA ternary complex: 175 μM ComR, 1 mM XIP, 175 μM 20-bp dsDNA (ComR-box of PcomX); 30% PEG 550 MME, 0.1 M MgCl2, 0.05 M Tris-HCl pH 8.5; 18°C; both purified

binding: binds
Binder: LPYFAGCL [XIP octapeptide (ComS 17-24, LPYFAGCL) from Streptococcus thermophilus LMD-9]

These are yes or no findings as the source states them, for the method shown. Binding calls can cover weak binding; strength is not graded here.
